The assay deals with T1, LOX catalytic domain (catalytic domain of human LOX, 169-417) (human) (UniProt P28300).
T1 sequence: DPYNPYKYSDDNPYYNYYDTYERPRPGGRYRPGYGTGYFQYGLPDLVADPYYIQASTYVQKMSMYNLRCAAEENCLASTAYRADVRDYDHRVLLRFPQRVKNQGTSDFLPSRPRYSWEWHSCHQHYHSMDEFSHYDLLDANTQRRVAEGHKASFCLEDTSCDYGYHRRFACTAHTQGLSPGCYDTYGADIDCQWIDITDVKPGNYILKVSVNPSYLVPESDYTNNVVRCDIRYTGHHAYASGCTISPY
The assay can be described thus: ELISA, plate coated with LOX catalytic domain, bound protein detected with peroxidase-conjugated anti-human antibody. For orientation: ELISA stands for enzyme-linked immunosorbent assay.

No constants are given. Whether binding was seen depends on the method and setting. Some results given as binding are weak or reduced against the parent protein; the word gives no strength. Tags and fused reporters may be left off the sequences shown.

B1: Fc-LPD N346, 362, 409Q (Fc fusion)
chain: APPAAGQQQPPREPPAAPGAWRQQIQWENNGQVFSLLSLGSQYQPQRRRDPGAAVPGAAQASAQQPRTPILLIRDQRTAAARTRTAGSSGVTAGRPRPTARHWFQAGYSTSRAREAGASRAEQQTAPGEVPALSNLRPPSRVDGMVGD
In the case of B1, the binding entry was “binds”.
